The test has as its system bax−/− bak−/− MEFs. Description: Cytotoxicity in bax-/- bak-/- MEFs. The conditions noted are these: 20 hrs. The test is classed as cell-based, mouse. Here is the method: MEF cells with wild-type (WT) (black symbols) or bax^−/−/bak^−/− (DKO) (white symbols) genotypes were treated with GA (A) or Staurosporine (B) at various concentrations.
Cell Culture, Transfection, and Apoptosis Assays.
GA-induced cytotoxicity is only partly Bcl-2-dependent. Anti-apoptotic Bcl-2-family proteins suppress mitochondria-initiated cell death by inhibiting pro-apoptotic Bcl-2 members Bax and Bak (Kroemer and Reed, Nat. Med. 6:513-519, 2000; Reed, Am. J. Pathol. 157:1415-1430, 2000; Li et al., Cell 116 (2 Suppl.):S57-59, 2 p. following S59). Consequently, when cells are genetically engineered to lack Bax and Bak, then Bcl-2 and related cytoprotective proteins no long display an anti-apoptotic phenotype (Wei et al., Science 292:727-730, 2001). Cells doubly deficient in Bax and Bak therefore provide a context for assessing the mechanism of GA-induced toxicity. GA killed transformed mouse fibroblasts (MEFs) generated from bax+/+ bak+/+ embryos in a concentration-dependent manner (FIG. 6A). […] We conclude therefore that GA induces cytotoxicity through mechanisms that are only partly dependent on Bcl-2-family proteins.

Regarding `CN[C@@H]1C[C@H]2O[C@@](C)([C@@H]1OC)n1c3ccccc3c3c4c(c5c6ccccc6n2c5c31)C(=O)NC4` [staurosporine, reference compound], the “killing of bax−/− bak−/− MEFs” value is on record as “profound block to apoptosis”.

The record behind these values is US20090163577A1, “METHODS AND COMPOSITIONS FOR ANTAGONIZING ANTI-APOPTOTIC Bcl-2-FAMILY PROTEINS” (Burnham Institute for Medical Research, priority 2007, published 2009).
